# From PubChem BioAssay AID493014 (National Center for Advancing Translational Sciences (NCATS), 2011)
# This is one part of the list. These are further read-outs of the screen, such as a control signal, another cell line or another target. No call is given for them. The list favours compounds with an active or inconclusive main result. The note in brackets gives the kind of curve behind each potency; many fits are weak.
# Assay: qHTS Assay to Find Inhibitors of Chronic Active B-Cell Receptor Signaling
# Settings: ABC-DLBCL IkBa-CBG/CBR reporter, luminescence ratio (green luciferase fused to IkBa over red control in TMD8 lymphoma cells), 4 h
# Outline: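 Cell line TMD8 (human ABC DLBCL), stably expressing tet-inducible CBG68-IkBa fusion and CBR; IMDM/0.5% FBS; cpd up to 46 uM; dox induction, 4 h, 37C/5% CO2; dual luminescence; green/red ratio; MG132 control.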
# [1] = measured here: CBR red luminescence, cell number
# [2] = measured here: IkBa-CBG green luminescence
SMILES,AC50 [1],AC50 [2]
CC(=O)NCCOC(=O)Nc1ccncc1,"14.6 µM [rising, partial curve, poor fit]",
N#Cc1ccsc1NC(=O)C1CCN(S(=O)(=O)c2cccs2)CC1,"18.4 µM [falling, partial curve, poor fit]",
CC(=O)C1=C(O)C(=O)N(CCCO)C1c1ccccc1 (stereo unspecified),"2.31 µM [rising, partial curve, poor fit]",
CCOC(=O)N1CCN(c2ncnc3c2cnn3-c2ccc(Cl)cc2)CC1,"18.4 µM [falling, partial curve, poor fit]",
COc1ccc2cc3cc(C(=O)N(C)C4CCCCC4)oc3nc2c1,"2.24 µM [rising, full curve, poor fit]",
COc1ccc(N2CCN(C(=O)CNS(=O)(=O)c3ccc(C)cc3)CC2)cc1,"8.91 µM [rising, partial curve, poor fit]",
Cc1cc(C)cc(OCCNC(=O)CCc2ccccc2)c1,"7.94 µM [rising, partial curve, poor fit]",
COc1ccc2c(c1)c(=O)oc1c(C)c(OCc3cc(C(=O)O)oc3C)ccc12,"2.82 µM [falling, single point]",
COc1ccc(S(=O)(=O)N2CCN(CC(=O)c3ccc(O)c(O)c3)CC2)cc1,"12.6 µM [rising, partial curve, poor fit]",
CCN(CC)C(=O)c1cn(-c2ccccc2)nc1-c1ccc2c(c1)OCCO2,"35.5 µM [falling, single point]",
CN(C)CCOC(=O)C1(c2ccccc2)CCOCC1,"3.98 µM [rising, full curve, poor fit]",
O=C(CSC1=NS(=O)(=O)c2cc(Cl)ccc2N1)Nc1cccc(F)c1,"1.3 µM [falling, full curve]",
CC(C)NC(=O)Nc1cccc2c1O[C@H](CN(C)C(=O)Nc1ccccc1)[C@@H](C)CN([C@H](C)CO)C2=O,"9.2 µM [rising, partial curve]",
Cc1nn(-c2ccccc2)c(/N=C/c2ccccc2O)c1-c1ccccc1,"10.3 µM [falling, partial curve]",
Nc1nc(-c2ccccc2)c(N=Nc2ccc(Cl)cc2)s1,"0.184 µM [rising, full curve]",
COC(=O)Cn1c(=NC(=O)c2ccc([N+](=O)[O-])s2)sc2cc(Br)ccc21,"13 µM [falling, partial curve, poor fit]",
COc1ccccc1N(C(=O)CCl)c1cn(C(C)=O)c2ccccc12,"8.91 µM [falling, partial curve, poor fit]",
COc1ccc(COC(=O)c2ccc(N3CCCC3=O)cc2)cc1F,"5.62 µM [rising, full curve, poor fit]",
N=c1c2c(-c3ccccc3)c(-c3ccccc3)n(Cc3ccco3)c2ncn1CCN1CCOCC1,"3.16 µM [falling, single point]",
O=c1[nH]c(N/N=C\c2ccc3c(c2)OCO3)nc2ccccc12,"6.31 µM [falling, partial curve]",
CCNC(=S)Nc1cc(OC)c(NC(=O)c2ccco2)cc1OC,,"10 µM [rising, partial curve, poor fit]"
COc1cccc2sc3ccc(C#Cc4ccc(N)cc4)cc3c(=O)c12,"11.2 µM [rising, partial curve, poor fit]",

SMILES,AC50 [1],AC50 [2]
O=C(O)c1ccc(NS(=O)(=O)c2ccc(N3CCCC3)c([N+](=O)[O-])c2)cc1,"6.31 µM [rising, single point]",
O=C(Nc1ccc(F)cc1)Nc1cccnc1Cl,"12.6 µM [falling, partial curve]",
COc1ccc2cc3cc(C(=O)NCCCN4CCC(C)CC4)oc3nc2c1,"14.1 µM [falling, single point]",
CCOC(=O)c1ccc(NC(=S)NCCc2ccccc2F)cc1,"0.447 µM [falling, full curve]",
Cc1onc(-c2ccccc2Cl)c1C(=O)OCC(=O)N1CCC(C)CC1,"0.651 µM [rising, full curve, poor fit]",
C/C(N)=C(/C#N)C(=O)COC(=O)c1ccccc1Oc1ccccc1,"35.5 µM [falling, single point]",
CC(C)c1ccc(C(C)NC(=S)NC2CCCCC2)cc1 (stereo unspecified),"3.98 µM [rising, single point]",
Cc1cccc(NC(=O)CCc2ccc(C)o2)c1,"29.1 µM [falling, single point]",
CN1CCN(C(=O)C2=C[C@H](c3coc4ccccc4c3=O)C[C@H](OCCCCO)O2)CC1,"3.16 µM [falling, partial curve, poor fit]",
O=C(NCc1ccccc1)C(=O)c1cn(CC(=O)N2CCOCC2)c2ccccc12,"1.78 µM [falling, partial curve, poor fit]",
CCOC(=O)c1sc(-c2ccccn2)nc1C,"3.98 µM [rising, full curve, poor fit]",
O=C(Nc1ccccn1)c1ccc(Cl)s1,"35.5 µM [falling, single point]",
COc1ccc(NC(=O)C2=C(C)NC(=O)NC2c2cccc(OC)c2OC)c(OC)c1 (stereo unspecified),"6.51 µM [rising, single point]",
COc1ccc(C2=NCCn3nc4ccccc4c32)cc1,"0.651 µM [falling, partial curve, poor fit]",
CCOc1ncccc1C(=O)N1CCN(c2cccc(C)c2C)CC1,"8.91 µM [rising, partial curve]","10 µM [falling, partial curve]"
CCOC(=O)Cc1csc(SCc2cc(=O)oc3cc(O)ccc23)n1,"23.1 µM [falling, partial curve, poor fit]",
Cc1nc2ccccc2c2oc(C(=O)NC3CC3)cc12,"14.6 µM [falling, single point]",
N#Cc1cc2c(nc1SCc1cccnc1)CCCC2,"2.82 µM [falling, full curve]",
COc1cccc(C(=O)O/N=C(\N)c2ccccn2)c1OC,"0.447 µM [falling, full curve, poor fit]",
CCN(CC(O)CON=C1c2ccccc2-c2ccccc21)S(=O)(=O)c1ccc(Cl)cc1 (stereo unspecified),"29.1 µM [falling, single point]",
c1ccc(-c2noc(-c3ccccc3-c3ccccc3)n2)cc1,"29.1 µM [rising, single point]",
O=C(CN1CCC(n2cnc3cc(F)ccc32)CC1)Nc1ccccc1Br,"35.5 µM [falling, single point]",

SMILES,AC50 [1],AC50 [2]
Cc1ccc(C)c(S(=O)(=O)NCc2ccc(C(=O)NCc3ccccn3)cc2)c1,"2.06 µM [rising, partial curve, poor fit]",
Clc1ccc(-c2nnc(SCc3nc4ccccc4s3)o2)cc1,"29.1 µM [rising, single point]",
COc1cc(NC(=O)c2cnc(NCc3ccccc3)nc2C)cc(OC)c1OC,"7.94 µM [falling, partial curve, poor fit]",
O=C(O)c1ccc2c(c1)C(=O)N(c1ccc(/C=C/C(=O)c3ccccc3)cc1)C2=O,"11.2 µM [falling, partial curve]",
Cn1c2c(c(=O)n(C)c1=O)C(CC(=O)Nc1ccccc1F)C(=O)N2 (stereo unspecified),"0.398 µM [falling, full curve]",
Cc1cc(C)c(NC(=O)CS(=O)CC(=O)N2CCN(c3ccc(F)cc3)CC2)c(C)c1 (stereo unspecified),"35.5 µM [falling, single point]",
COC(=O)c1cc2c(ccn2-c2ccc(F)cc2)n1CC(C)C,"1.41 µM [rising, full curve, poor fit]",
N#CC1(Nc2cccc(Br)c2)C(=O)Nc2ccccc21 (stereo unspecified),"8.91 µM [falling, partial curve, poor fit]",
Cc1cc(=O)oc2cc(OC(C)C(=O)NCc3ccccn3)ccc12 (stereo unspecified),"12.6 µM [rising, single point]",
O=C1CCCCN1CCC(=O)N1CCCC(Nc2ccc(F)c(F)c2)C1 (stereo unspecified),"3.55 µM [falling, partial curve, poor fit]",
Cc1cccc(/C=N/NC(=O)c2cccc(NC(=O)c3ccccc3)c2)n1,"35.5 µM [falling, single point]",
N#C/C(=N\Nc1ccc(Cl)cc1)C(=N)N1CCCCCC1,"0.355 µM [rising, full curve, poor fit]",
NC(=O)N1c2ccccc2CC(=O)c2ccccc21,"35.5 µM [rising, single point]",
Cc1c(OCC(=O)N[C@@H](Cc2ccccc2)C(=O)O)ccc2c1oc(=O)c1ccccc12,"8.91 µM [falling, partial curve]",
O=C(CSc1nnc(C2CC2)n1C1CC1)c1ccc(F)cc1,"29.1 µM [falling, single point]",
CCOC(=O)N1CCN(C(=O)c2oc(=O)c3ccccc3c2-c2ccc(C)cc2)CC1,"35.5 µM [falling, single point]",
Cc1ccc(Cl)cc1NC(=O)C1CC1c1ccccc1 (stereo unspecified),"11.2 µM [rising, partial curve, poor fit]",
O=C(Nc1ccc(-c2cnco2)cc1)c1ccc(F)cc1F,"12.6 µM [falling, partial curve]",
CCOc1ccc(-c2nnc(-c3ccccc3)o2)cc1,"10.3 µM [falling, partial curve, poor fit]",
O=C(COc1ccc(Br)cc1Br)NC1CCCC1,"0.562 µM [rising, full curve, poor fit]",
COc1cccc(OCC(=O)NC2CC(=O)N(c3cccc(OC)c3)C2)c1 (stereo unspecified),"2.82 µM [rising, full curve, poor fit]",

# Part of the list above, tab-delimited.
SMILES	AC50 [1]	AC50 [2]
COc1cc(NC(=O)c2cnc(NCc3ccccc3)nc2C)cc(OC)c1OC	7.94 µM [falling, partial curve, poor fit]	
O=C(O)c1ccc2c(c1)C(=O)N(c1ccc(/C=C/C(=O)c3ccccc3)cc1)C2=O	11.2 µM [falling, partial curve]	

# Arranged by molar mass (falling): some entries from above
SMILES,AC50 [1],AC50 [2]
O=C(O)c1ccc2c(c1)C(=O)N(c1ccc(/C=C/C(=O)c3ccccc3)cc1)C2=O,"11.2 µM [falling, partial curve]",
N#CC1(Nc2cccc(Br)c2)C(=O)Nc2ccccc21 (stereo unspecified),"8.91 µM [falling, partial curve, poor fit]",
CCOc1ccc(-c2nnc(-c3ccccc3)o2)cc1,"10.3 µM [falling, partial curve, poor fit]",
